PubChem BioAssay AID1259425 | University of Nebraska Medical Center, 2018
The deposit covers about 14,000 reagents; shown is an unselected part. Not all columns of the deposit are shown. The record does not give: the time to read-out.

Aim: 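Compare each knockdown with KSR1 silencing using changes in marker transcripts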 (primary screen)
Cells: HCT116 human colon cancer cells
Reagents: siRNA pool against human genes, 50 nM siRNA
Measurement: 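mRNA of six signature genes measured together by branched-DNA assay after 50 nM siRNA pool, blank removed, divided by geometric mean of two housekeeping genes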
Scale: BNIP3L mRNA: higher = more BNIP3L transcript after knockdown

KRTAP4-1 (keratin associated protein 4-1)
- BNIP3L mRNA, set 1: 0.236

GUF1 (GTP binding elongation factor GUF1)
- BNIP3L mRNA, set 1: 0.171

CLCN7 (Cl-/H+ antiporter 7)
- BNIP3L mRNA, set 1: 0.305

PITX2 (paired like homeodomain 2)
- BNIP3L mRNA, set 1: 0.0552

PLLP (plasmolipin)
- BNIP3L mRNA, set 1: 0.294

ZNF75D (zinc finger protein 75D)
- BNIP3L mRNA, set 1: 0.128

3 entries already listed, sorted by “BNIP3L mRNA, set 1”, highest first.
PLLP (plasmolipin)
- BNIP3L mRNA, set 1: 0.294

ZNF75D (zinc finger protein 75D)
- BNIP3L mRNA, set 1: 0.128

PITX2 (paired like homeodomain 2)
- BNIP3L mRNA, set 1: 0.0552

Next records:
SNRNP35 (small nuclear ribonucleoprotein U11/U12 subunit 35)
- BNIP3L mRNA, set 1: 0.0859

CACNB2 (calcium voltage-gated channel auxiliary subunit beta 2)
- BNIP3L mRNA, set 1: 0.0839

ZFYVE16 (zinc finger FYVE-type containing 16)
- BNIP3L mRNA, set 1: 0.0909

LLGL2 (LLGL scribble cell polarity complex component 2)
- BNIP3L mRNA, set 1: 0.189

KCNH4 (potassium voltage-gated channel subfamily H member 4)
- BNIP3L mRNA, set 1: 0.0984

MICALL1 (MICAL like 1)
- BNIP3L mRNA, set 1: 0.0666

CSPG5 (chondroitin sulfate proteoglycan 5)
- BNIP3L mRNA, set 1: 0.216

SYT13 (synaptotagmin 13)
- BNIP3L mRNA, set 1: 0.101

C17orf75 (chromosome 17 open reading frame 75)
- BNIP3L mRNA, set 1: 0.0993

LIG1 (DNA ligase 1)
- BNIP3L mRNA, set 1: 0.0806

FMOD (fibromodulin)
- BNIP3L mRNA, set 1: 0.0919

LILRA6 (leukocyte immunoglobulin like receptor A6)
- BNIP3L mRNA, set 1: 0.12

OR51B2 (olfactory receptor family 51 subfamily B member 2)
- BNIP3L mRNA, set 1: 0.357
